Assay results taken from paper PMC10939263.
Results are given in words; binding and its absence hold for the method and conditions named. In cells and extracts the contact can be indirect. Some binding calls cover weakened binding; strength is not graded here.

Chains of the proteins cited; added tags and fusions are not shown. Lines headed by an entry give the natural chain unless they say otherwise; changes in a name come on top. A line that says so, or that is headed by a name, gives the form on record, which may keep a tag or linker.
UniProt Q9H3Y6: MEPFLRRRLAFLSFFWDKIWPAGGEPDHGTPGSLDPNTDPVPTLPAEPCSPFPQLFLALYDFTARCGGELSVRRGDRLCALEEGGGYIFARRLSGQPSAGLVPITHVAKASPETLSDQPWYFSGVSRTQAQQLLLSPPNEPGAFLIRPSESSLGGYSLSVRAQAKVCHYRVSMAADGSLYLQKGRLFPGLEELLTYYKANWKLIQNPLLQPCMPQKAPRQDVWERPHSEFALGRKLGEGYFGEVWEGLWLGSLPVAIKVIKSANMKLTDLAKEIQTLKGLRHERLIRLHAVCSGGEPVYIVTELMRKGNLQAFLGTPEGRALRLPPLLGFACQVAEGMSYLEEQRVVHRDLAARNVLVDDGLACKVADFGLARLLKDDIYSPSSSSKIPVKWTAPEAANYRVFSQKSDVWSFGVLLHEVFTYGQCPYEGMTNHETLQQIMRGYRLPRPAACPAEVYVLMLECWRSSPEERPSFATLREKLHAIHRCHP
UniProt P51451: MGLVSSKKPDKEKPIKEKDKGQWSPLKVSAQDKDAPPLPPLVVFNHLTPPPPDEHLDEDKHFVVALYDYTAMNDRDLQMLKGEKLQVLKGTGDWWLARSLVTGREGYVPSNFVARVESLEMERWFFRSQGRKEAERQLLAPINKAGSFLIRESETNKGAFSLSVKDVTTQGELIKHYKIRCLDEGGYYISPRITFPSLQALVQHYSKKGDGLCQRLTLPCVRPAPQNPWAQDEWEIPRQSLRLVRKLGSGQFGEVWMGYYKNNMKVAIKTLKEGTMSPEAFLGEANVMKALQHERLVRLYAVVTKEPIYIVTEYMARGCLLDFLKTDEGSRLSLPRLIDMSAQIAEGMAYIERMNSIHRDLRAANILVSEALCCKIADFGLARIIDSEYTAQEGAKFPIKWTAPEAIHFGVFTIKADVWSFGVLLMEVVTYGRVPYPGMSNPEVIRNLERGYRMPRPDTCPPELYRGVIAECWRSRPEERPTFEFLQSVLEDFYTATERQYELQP
FYNT isoform of FYN, C1-fused (P06241, form named): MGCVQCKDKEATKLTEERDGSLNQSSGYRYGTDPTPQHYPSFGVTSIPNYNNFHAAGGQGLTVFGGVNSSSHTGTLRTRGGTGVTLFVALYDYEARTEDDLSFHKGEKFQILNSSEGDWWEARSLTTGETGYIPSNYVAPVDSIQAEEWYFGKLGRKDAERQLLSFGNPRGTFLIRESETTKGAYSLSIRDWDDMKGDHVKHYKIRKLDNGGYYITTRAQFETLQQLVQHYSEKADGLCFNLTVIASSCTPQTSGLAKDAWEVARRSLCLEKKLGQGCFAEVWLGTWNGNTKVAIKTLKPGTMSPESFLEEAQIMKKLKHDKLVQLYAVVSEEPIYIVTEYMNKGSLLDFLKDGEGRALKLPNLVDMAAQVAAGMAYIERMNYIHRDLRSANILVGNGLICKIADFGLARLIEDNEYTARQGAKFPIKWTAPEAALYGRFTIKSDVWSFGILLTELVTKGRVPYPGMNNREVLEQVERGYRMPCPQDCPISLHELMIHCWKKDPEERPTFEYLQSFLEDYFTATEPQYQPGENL
UniProt P42685: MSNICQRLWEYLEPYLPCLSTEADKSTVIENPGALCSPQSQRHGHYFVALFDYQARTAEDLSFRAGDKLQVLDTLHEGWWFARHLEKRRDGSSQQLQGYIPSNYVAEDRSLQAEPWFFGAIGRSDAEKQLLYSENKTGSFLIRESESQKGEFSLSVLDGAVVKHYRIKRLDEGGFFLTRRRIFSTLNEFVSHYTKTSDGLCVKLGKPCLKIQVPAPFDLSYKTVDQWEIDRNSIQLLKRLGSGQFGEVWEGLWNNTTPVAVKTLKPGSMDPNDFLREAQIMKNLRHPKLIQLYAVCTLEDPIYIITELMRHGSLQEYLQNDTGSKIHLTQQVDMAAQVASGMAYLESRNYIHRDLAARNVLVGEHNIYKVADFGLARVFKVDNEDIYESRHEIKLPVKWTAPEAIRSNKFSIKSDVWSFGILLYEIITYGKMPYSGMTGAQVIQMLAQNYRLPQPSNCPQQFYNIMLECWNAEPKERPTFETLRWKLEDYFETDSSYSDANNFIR
UniProt P06239: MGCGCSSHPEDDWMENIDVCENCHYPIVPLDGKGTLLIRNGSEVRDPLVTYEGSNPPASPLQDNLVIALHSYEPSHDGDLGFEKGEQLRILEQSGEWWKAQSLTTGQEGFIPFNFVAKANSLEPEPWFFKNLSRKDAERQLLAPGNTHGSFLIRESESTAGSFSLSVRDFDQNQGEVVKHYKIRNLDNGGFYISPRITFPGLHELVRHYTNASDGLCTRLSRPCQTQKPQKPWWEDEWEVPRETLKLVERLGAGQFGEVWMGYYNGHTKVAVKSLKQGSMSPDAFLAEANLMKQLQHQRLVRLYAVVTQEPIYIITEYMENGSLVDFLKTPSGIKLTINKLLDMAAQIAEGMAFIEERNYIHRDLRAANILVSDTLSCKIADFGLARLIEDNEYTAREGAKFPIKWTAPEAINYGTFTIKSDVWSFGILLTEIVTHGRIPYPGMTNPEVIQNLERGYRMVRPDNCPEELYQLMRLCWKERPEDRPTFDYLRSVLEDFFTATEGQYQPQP
HCK R150A mutant, N1-fused (P08631, form named): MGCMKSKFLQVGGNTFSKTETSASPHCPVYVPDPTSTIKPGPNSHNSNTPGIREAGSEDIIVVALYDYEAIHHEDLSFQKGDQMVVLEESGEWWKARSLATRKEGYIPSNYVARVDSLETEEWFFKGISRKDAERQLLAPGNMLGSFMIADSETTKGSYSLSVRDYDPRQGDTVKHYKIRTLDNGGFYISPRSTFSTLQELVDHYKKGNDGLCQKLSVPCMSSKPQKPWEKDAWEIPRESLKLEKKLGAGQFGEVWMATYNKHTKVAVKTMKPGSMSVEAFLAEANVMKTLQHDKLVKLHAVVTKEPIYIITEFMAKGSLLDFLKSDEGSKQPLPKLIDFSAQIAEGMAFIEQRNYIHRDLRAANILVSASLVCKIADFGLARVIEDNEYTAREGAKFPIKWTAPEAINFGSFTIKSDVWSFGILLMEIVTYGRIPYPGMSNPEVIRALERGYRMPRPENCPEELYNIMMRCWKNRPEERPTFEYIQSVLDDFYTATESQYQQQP
HCK Y501F mutant, N1-fused (P08631, form named): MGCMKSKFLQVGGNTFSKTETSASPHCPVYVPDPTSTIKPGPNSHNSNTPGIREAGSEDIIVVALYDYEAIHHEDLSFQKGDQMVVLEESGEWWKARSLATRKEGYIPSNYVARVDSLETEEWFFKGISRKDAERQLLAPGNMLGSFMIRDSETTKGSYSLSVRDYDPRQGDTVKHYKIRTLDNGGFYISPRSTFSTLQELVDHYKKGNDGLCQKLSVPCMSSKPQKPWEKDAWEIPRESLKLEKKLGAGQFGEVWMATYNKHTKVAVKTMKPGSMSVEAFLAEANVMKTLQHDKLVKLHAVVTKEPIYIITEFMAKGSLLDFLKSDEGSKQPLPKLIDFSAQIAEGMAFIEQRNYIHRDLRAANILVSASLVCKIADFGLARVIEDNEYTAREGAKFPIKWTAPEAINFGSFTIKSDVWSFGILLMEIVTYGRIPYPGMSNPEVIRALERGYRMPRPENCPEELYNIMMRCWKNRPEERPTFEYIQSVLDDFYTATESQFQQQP
UniProt P07947: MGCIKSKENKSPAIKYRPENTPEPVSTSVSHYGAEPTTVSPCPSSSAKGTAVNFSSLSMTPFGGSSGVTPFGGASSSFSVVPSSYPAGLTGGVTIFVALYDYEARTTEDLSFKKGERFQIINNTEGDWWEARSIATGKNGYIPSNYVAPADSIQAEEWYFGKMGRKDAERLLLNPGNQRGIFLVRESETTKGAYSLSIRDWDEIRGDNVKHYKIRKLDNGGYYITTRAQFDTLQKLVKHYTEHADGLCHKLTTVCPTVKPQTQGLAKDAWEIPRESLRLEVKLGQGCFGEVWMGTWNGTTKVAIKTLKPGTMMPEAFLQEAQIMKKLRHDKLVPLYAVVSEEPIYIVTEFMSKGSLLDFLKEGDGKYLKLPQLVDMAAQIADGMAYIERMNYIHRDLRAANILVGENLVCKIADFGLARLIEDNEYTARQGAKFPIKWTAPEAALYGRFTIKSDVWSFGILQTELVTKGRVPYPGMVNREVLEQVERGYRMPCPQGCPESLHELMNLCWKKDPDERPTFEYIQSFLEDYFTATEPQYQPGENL
UniProt Q86WV1: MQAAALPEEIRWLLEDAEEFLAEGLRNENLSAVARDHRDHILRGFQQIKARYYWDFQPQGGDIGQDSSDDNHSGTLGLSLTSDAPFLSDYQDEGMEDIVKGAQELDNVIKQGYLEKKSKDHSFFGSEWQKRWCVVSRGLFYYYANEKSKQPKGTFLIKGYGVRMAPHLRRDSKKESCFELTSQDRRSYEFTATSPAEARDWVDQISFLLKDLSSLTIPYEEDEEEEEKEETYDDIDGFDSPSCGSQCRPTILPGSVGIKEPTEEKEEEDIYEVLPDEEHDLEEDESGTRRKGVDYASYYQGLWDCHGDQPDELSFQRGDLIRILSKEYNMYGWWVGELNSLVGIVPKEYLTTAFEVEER
UniProt O75563: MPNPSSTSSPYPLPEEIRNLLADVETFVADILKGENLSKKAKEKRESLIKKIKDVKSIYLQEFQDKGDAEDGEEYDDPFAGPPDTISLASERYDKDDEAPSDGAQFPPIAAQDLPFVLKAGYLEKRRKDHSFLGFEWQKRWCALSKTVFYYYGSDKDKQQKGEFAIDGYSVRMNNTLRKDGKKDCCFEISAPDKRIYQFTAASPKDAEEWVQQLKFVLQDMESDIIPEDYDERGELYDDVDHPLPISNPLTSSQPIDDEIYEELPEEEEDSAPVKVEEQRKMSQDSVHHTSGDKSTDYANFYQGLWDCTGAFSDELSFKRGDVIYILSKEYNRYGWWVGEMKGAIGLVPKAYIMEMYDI

Tests used:
Test in all cases: split reporter; Gaussia princeps luciferase complementation assay in human HEK293T cells; Gluc2 at the N terminus of SKAP1 or SKAP2 (N2), Gluc1 at the N terminus (N1) or C terminus (C1) of the SRC kinase; 100 ng plasmid pair, PEI; luminescence read in lysate one day later; normalized luminescence ratio (NLR), given relative to wild type or to SKAP2
[1] = molecular target: SRMS, N1-fused (UniProt Q9H3Y6)
[2] = molecular target: BLK, N1-fused (UniProt P51451)
[3] = molecular target: FYNT isoform of FYN, C1-fused (UniProt P06241)
[4] = molecular target: FRK, C1-fused (UniProt P42685)
[5] = molecular target: LCK wild type, C1-fused (UniProt P06239)
[6] = molecular target: HCK R150A mutant, C1-fused (UniProt P08631)
[7] = molecular target: FRK, N1-fused (UniProt P42685)
[8] = molecular target: LCK Y505F mutant, N1-fused (UniProt P06239)
[9] = molecular target: HCK Y501F mutant, N1-fused (UniProt P08631)
[10] = molecular target: HCK R150A mutant, N1-fused (UniProt P08631)
[11] = molecular target: YES, N1-fused (UniProt P07947)
[12] = molecular target: FGR, N1-fused (UniProt P09769)
[13] = molecular target: LCK R154A mutant, N1-fused (UniProt P06239)
[14] = molecular target: SRMS, C1-fused (UniProt Q9H3Y6)

binding [1] | binding [2] | binding [3] | binding [4] | binding [5] | binding [6] | binding [7] | binding [8] | binding [9] | binding [10] | binding [11] | binding [12] | binding [13] | binding [14] | Substance
binds | binds | binds | binds | binds | binds | binds | binds | binds | binds | binds | binds | binds | binds | SRC kinase associated phosphoprotein 1 (SKAP1), wild type, N2-fused (from UniProt Q86WV1 1-359)
binds | binds | binds | binds | binds | binds | binds | binds | binds | binds | binds | binds | binds | binds | SRC kinase associated phosphoprotein 2 (SKAP2), wild type, N2-fused (from UniProt O75563 1-359)
